Some of the results follow.

The chains behind the UniProt entries cited, without tags or fusion partners. Where a name states a change or a piece, a line headed by the entry shows the natural chain unless it says otherwise.
UniProt P55145: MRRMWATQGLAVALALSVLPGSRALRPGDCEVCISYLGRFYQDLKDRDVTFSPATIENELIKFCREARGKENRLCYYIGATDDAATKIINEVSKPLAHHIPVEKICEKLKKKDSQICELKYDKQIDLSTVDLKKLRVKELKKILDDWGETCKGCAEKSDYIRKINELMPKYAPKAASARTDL
UniProt Q9NX47: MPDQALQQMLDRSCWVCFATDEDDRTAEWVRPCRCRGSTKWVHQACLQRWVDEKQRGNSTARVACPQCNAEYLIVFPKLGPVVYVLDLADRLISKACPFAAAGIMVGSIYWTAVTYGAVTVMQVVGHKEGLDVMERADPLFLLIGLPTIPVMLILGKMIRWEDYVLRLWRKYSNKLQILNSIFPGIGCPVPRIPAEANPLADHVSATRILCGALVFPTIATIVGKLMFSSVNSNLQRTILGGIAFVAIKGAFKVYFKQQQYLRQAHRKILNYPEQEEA
UniProt Q14244: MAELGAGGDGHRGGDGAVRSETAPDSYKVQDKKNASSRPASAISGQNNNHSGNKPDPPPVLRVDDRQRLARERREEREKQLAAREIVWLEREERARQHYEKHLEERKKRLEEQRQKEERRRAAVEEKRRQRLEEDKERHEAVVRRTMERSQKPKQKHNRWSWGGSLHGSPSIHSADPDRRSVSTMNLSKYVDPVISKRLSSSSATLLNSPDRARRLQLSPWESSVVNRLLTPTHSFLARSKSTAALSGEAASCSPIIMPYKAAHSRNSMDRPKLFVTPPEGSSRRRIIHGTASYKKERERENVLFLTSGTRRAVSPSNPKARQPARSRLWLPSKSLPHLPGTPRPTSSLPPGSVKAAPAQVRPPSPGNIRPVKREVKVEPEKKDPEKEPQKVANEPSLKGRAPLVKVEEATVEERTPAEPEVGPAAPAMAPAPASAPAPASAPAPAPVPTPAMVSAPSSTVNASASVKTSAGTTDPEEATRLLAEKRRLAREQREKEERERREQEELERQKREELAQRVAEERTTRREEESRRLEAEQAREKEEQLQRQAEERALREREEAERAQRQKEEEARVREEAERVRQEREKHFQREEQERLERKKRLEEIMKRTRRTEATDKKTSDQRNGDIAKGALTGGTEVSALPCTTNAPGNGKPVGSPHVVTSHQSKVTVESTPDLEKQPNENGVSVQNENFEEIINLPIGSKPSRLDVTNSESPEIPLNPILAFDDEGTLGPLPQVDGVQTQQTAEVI
UniProt Q9UKM7: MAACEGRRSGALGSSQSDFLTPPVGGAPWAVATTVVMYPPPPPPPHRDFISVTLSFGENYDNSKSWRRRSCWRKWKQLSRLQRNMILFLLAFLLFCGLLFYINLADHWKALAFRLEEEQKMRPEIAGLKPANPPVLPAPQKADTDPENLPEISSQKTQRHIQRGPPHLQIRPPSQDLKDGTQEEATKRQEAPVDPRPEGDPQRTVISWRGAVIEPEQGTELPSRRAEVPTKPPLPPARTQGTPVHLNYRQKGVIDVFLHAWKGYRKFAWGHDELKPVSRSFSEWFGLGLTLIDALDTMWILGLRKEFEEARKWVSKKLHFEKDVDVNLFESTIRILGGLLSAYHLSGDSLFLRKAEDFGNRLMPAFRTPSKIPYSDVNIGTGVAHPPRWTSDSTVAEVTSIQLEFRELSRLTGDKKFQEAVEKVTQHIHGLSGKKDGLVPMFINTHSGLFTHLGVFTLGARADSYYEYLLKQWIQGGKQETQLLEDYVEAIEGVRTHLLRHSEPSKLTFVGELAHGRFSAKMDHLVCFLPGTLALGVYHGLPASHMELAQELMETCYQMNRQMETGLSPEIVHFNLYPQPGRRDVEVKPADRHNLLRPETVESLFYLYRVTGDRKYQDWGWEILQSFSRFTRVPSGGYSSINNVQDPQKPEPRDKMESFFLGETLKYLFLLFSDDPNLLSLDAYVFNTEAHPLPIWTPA
UniProt Q15013: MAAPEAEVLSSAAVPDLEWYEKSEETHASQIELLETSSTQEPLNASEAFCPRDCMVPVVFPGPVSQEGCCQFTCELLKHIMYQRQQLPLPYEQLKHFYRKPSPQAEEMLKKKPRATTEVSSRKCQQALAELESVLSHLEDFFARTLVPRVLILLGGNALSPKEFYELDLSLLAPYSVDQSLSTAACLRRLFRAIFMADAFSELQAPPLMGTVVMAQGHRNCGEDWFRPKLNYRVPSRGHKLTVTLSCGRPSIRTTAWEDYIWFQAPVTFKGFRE
UniProt Q15691: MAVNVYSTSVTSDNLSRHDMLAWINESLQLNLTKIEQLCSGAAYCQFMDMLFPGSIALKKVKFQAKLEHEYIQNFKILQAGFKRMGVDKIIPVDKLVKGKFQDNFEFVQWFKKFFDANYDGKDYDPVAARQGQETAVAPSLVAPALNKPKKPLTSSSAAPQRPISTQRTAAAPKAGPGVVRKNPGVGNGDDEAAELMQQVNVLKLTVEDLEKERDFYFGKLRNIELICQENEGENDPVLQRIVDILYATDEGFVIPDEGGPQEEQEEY
UniProt P62310: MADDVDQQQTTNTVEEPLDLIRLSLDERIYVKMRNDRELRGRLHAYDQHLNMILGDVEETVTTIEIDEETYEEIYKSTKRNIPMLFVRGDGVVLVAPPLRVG
UniProt Q9UK45: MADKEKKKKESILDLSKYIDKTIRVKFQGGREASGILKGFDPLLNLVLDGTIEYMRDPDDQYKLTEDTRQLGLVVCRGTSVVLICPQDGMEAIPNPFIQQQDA
UniProt Q9HD34: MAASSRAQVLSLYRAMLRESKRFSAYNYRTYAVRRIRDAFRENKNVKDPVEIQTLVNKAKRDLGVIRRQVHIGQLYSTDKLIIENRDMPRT
UniProt Q7L5Y9: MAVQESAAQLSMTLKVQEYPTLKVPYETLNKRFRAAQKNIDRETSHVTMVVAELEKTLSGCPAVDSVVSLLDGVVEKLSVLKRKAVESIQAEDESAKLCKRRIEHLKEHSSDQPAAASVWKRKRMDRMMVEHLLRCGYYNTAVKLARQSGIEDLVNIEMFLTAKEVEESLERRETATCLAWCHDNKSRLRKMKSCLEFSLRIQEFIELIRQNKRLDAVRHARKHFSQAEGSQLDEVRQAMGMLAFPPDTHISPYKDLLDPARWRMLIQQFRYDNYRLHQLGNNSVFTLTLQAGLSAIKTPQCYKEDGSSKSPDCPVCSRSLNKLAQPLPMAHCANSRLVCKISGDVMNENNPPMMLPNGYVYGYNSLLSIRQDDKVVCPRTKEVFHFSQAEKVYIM
UniProt O60337: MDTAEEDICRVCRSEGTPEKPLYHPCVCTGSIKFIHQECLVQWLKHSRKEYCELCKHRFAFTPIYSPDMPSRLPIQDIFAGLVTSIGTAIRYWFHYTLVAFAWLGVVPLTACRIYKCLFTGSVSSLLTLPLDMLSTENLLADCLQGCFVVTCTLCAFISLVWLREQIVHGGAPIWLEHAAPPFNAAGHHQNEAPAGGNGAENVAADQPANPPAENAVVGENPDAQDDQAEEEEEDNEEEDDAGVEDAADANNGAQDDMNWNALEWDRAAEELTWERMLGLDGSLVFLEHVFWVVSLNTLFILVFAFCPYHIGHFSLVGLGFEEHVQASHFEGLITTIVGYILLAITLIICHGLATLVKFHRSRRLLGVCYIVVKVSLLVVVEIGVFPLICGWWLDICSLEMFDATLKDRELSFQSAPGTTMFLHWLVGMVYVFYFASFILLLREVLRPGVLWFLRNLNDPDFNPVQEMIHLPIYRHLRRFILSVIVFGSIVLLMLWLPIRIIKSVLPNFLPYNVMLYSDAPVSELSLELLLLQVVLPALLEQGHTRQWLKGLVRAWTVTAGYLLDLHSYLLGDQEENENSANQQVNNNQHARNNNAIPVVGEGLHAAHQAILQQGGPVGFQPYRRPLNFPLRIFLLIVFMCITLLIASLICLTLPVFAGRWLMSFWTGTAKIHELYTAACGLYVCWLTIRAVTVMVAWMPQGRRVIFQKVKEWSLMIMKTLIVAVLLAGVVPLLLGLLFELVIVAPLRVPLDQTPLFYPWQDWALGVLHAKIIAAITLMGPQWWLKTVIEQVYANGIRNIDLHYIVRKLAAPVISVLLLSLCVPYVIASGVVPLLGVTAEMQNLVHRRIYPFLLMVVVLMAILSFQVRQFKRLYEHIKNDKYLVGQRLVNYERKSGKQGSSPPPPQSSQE
UniProt P45985: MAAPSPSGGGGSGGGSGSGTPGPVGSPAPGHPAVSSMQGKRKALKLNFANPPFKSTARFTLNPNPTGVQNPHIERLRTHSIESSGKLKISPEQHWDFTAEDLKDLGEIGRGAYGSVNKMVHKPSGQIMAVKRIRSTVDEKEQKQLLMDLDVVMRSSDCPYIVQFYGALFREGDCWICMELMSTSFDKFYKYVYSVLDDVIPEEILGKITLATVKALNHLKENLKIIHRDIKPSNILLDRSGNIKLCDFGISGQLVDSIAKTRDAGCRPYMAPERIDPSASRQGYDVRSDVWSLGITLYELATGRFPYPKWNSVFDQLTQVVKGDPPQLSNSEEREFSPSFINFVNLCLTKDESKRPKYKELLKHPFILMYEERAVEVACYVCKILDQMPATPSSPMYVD
UniProt Q9NTJ4: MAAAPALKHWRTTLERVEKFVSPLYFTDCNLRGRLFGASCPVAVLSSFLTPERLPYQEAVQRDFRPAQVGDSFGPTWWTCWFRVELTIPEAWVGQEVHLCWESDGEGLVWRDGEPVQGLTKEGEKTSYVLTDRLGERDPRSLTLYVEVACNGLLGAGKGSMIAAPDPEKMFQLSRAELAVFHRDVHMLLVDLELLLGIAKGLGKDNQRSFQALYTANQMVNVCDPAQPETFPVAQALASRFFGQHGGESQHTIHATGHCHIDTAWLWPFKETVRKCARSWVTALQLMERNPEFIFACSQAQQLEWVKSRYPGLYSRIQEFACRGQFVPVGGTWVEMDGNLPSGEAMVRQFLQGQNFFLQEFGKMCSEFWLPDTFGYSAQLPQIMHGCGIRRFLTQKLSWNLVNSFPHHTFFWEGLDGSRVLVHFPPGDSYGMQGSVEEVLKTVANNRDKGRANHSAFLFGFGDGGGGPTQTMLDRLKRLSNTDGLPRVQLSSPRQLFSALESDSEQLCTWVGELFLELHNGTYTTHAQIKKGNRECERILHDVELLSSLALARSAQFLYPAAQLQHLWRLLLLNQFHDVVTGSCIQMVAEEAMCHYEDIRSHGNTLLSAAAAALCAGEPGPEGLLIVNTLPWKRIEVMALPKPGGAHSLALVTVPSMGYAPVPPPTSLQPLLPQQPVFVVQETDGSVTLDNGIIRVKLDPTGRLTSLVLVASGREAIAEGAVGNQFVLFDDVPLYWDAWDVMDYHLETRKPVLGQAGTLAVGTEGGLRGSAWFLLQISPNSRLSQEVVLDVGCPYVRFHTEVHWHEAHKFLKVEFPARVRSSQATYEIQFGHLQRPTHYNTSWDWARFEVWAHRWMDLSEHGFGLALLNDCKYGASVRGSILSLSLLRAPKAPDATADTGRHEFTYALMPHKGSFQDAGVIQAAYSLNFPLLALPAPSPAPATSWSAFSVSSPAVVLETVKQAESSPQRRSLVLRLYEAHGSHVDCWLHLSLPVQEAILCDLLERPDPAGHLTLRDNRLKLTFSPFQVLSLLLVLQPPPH
UniProt Q8N5G2: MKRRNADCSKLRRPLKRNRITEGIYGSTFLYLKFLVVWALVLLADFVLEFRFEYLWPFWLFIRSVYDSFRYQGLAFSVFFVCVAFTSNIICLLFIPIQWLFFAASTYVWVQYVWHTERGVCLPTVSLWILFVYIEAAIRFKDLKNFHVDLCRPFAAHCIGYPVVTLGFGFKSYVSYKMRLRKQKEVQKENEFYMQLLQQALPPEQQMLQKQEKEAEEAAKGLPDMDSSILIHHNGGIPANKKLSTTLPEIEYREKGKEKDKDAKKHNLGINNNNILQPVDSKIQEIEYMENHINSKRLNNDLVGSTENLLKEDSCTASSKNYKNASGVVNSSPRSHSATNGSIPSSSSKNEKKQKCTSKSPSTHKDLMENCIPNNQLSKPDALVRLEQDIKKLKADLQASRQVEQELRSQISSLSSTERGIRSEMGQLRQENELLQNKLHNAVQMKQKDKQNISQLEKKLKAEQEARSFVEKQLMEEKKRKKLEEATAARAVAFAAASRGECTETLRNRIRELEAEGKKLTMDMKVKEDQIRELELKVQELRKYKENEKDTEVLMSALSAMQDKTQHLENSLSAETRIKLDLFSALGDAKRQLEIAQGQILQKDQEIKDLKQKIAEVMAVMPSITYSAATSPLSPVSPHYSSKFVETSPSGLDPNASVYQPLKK

Compound in one experiment: CC(C)N(C[C@H]1O[C@@H](n2cnc3c(N)ncnc32)[C@H](O)[C@@H]1O)[C@H]1C[C@@H](CCc2nc3cc(C(C)(C)C)ccc3[nH]2)C1 [pinometostat]
The experiment is described as follows: log2 fold change, soluble protein after heating vs DMSO (PISA); higher = thermal stabilisation; K562 cells, 10 uM, 30 min; active = over 0.2 and 3.5 SD of the protein, either way, in both replicates (recomputed). The gist of the method:
(§1)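 Aliquots of K562 cells (2×10^6 cells/mL) treated with 10 μM compound for 30 min were heated for 3 min over 48°C-58°C. After pooling and extraction in PBS with 0.5% NP-40 at 4°C, soluble protein from a 21,000xg, 90 min spin was quantified by TMTpro 16plex LC-MS/MS with channel sums equalised. Thermal stability is expressed against control samples, from duplicates, as a log2 fold change.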
MALSU1 (UniProt Q96EH3): the log2 fold change was inactive: -0.078.
On the same count and under the same terms, the result for MANF (UniProt P55145) reads inactive: -0.036; that for MARCHF5 (UniProt Q9NX47), inactive: -0.026.
For MAP7 isoform 7 (UniProt Q14244), the log2 fold change is inactive: 0.355.
On to MAN1B1 (UniProt Q9UKM7), for which the log2 fold change was inactive: 0.031.
Consider MAD2L1BP isoform 3 (UniProt Q15013), for which the log2 fold change was inactive: -0.027.
The same measure, in the same setting: under MAPRE1 (UniProt Q15691) stands inactive: -0.009; under LSM3 (UniProt P62310), inactive: -0.051.
In the case of LYAR (UniProt Q9NX58), the log2 fold change is inactive: 0.378.
For the target LSM7 (UniProt Q9UK45), the log2 fold change was inactive: -0.045.

Compound in a further experiment: CC1=C(C(CC(=O)N1)C2=CC=C(C=C2)C(F)(F)F)C(=O)NC3=C(C=C4C(=C3)C=NN4)F
The experiment is described as above. The gist of the method: as §1
In the case of LYRM4 (UniProt Q9HD34), the log2 fold change is inactive: -0.021.
As for MAGEB2 (UniProt O15479), the log2 fold change is inactive: 0.021.
MAP1A isoform 2 (UniProt P78559): the log2 fold change was inactive: 0.004.
As to MANBA (UniProt O00462), the log2 fold change was inactive: 0.008.
Still for that read-out and setting: the result for MAP7D1 (UniProt Q3KQU3) reads inactive: 0.055; that for MAEA (UniProt Q7L5Y9), inactive: -0.002; that for MARCHF6 (UniProt O60337), inactive: 0.071.
For the target LRRC8A (UniProt Q8IWT6), the log2 fold change is inactive: 0.021.
In the case of MAGT1 (UniProt Q9H0U3), the log2 fold change was inactive: 0.01.
For the target M6PR (UniProt P20645), the log2 fold change is inactive: 0.084.
As to LSM6 (UniProt P62312), the log2 fold change was inactive: 0.
With LSM2 (UniProt Q9Y333), the log2 fold change was inactive: 0.007.
MACF1 (UniProt H3BQK9): the log2 fold change is inactive: -0.017.
On to LYZ (UniProt P61626), for which the log2 fold change was inactive: -0.906.
On to MAP2K4 isoform 2 (UniProt P45985), for which the log2 fold change is inactive: 0.009.
As to LRRFIP2 (UniProt Q9Y608), the log2 fold change is inactive: 0.027.
Turning to MAN2C1 isoform 4 (UniProt Q9NTJ4), the log2 fold change is inactive: 0.208.
For the target LRSAM1 (UniProt Q6UWE0), the log2 fold change is inactive: 0.026.
On the same count and under the same terms, under MAN2A1 (UniProt Q16706) stands inactive: 0; under LSM4 (UniProt Q9Y4Z0), inactive: 0.008; under MAPK1 (UniProt P28482), inactive: 0.017.
The same measure, in the same setting: the result for MACO1 (UniProt Q8N5G2) reads inactive: -0.008; that for MAN2A2 (UniProt P49641), inactive: -0.024; that for MALSU1 (UniProt Q96EH3), inactive: 0.001.
Take MANF (UniProt P55145): the log2 fold change is inactive: 0.042.
Take MARCHF5 (UniProt Q9NX47): the log2 fold change was inactive: 0.011.
On to MAP7 isoform 7 (UniProt Q14244), for which the log2 fold change is inactive: 0.037.
As for MAN1B1 (UniProt Q9UKM7), the log2 fold change is inactive: -0.011.
For MAD2L1BP isoform 3 (UniProt Q15013), the log2 fold change is inactive: 0.009.
Turning to MAPRE1 (UniProt Q15691), the log2 fold change is inactive: -0.013.
Take LSM3 (UniProt P62310): the log2 fold change is inactive: 0.029.
LYAR (UniProt Q9NX58): the log2 fold change was inactive: -0.031.
Same read-out and setting: under LSM7 (UniProt Q9UK45) stands inactive: 0.038.

Compound in the next experiment: CC1=C(C2=C(C=C1)C(=O)C3=CC=CC=C3N2CCCN)C
The experiment is described as above. The gist of the method:
as §1
Consider LYRM4 (UniProt Q9HD34), for which the log2 fold change is inactive: 0.013.
As to MAGEB2 (UniProt O15479), the log2 fold change is inactive: -0.305.
For the target MAP1A isoform 2 (UniProt P78559), the log2 fold change was inactive: -0.084.
As for MANBA (UniProt O00462), the log2 fold change was inactive: -0.033.
On the same count and under the same terms, under MAP7D1 (UniProt Q3KQU3) stands inactive: -0.219.
For the target MAEA (UniProt Q7L5Y9), the log2 fold change is inactive: -0.042.
On the same count and under the same terms, under MARCHF6 (UniProt O60337) stands inactive: -0.051.
Regarding LRRC8A (UniProt Q8IWT6), the log2 fold change was inactive: 0.137.
As to MAGT1 (UniProt Q9H0U3), the log2 fold change was inactive: -0.008.
In the case of M6PR (UniProt P20645), the log2 fold change is inactive: -0.001.
The same measure, in the same setting: the result for LSM6 (UniProt P62312) reads inactive: 0.019; that for LSM2 (UniProt Q9Y333), inactive: 0.023; that for MACF1 (UniProt H3BQK9), inactive: 0.076.
Still for that read-out and setting: under LYZ (UniProt P61626) stands inactive: -0.005.
The same measure, in the same setting: the result for MAP2K4 isoform 2 (UniProt P45985) reads inactive: -0.009; that for LRRFIP2 (UniProt Q9Y608), inactive: -0.025; that for MAN2C1 isoform 4 (UniProt Q9NTJ4), inactive: 0.026.
As to LRSAM1 (UniProt Q6UWE0), the log2 fold change was inactive: 0.045.
On the same count and under the same terms, under MAN2A1 (UniProt Q16706) stands inactive: -0.016.
Take LSM4 (UniProt Q9Y4Z0): the log2 fold change is inactive: -0.01.
As for MAPK1 (UniProt P28482), the log2 fold change is inactive: -0.028.
MACO1 (UniProt Q8N5G2): the log2 fold change was inactive: 0.147.
Turning to MAN2A2 (UniProt P49641), the log2 fold change is inactive: 0.01.
As for MALSU1 (UniProt Q96EH3), the log2 fold change is inactive: -0.084.
As for MANF (UniProt P55145), the log2 fold change was inactive: -0.032.
MARCHF5 (UniProt Q9NX47): the log2 fold change was inactive: 0.01.
With MAP7 isoform 7 (UniProt Q14244), the log2 fold change was inactive: -0.255.
As to MAN1B1 (UniProt Q9UKM7), the log2 fold change is inactive: 0.054.
On the same count and under the same terms, under MAD2L1BP isoform 3 (UniProt Q15013) stands inactive: -0.135.
The same measure, in the same setting: the result for MAPRE1 (UniProt Q15691) reads inactive: 0.018.
LSM3 (UniProt P62310): the log2 fold change was inactive: 0.065.
Turning to LYAR (UniProt Q9NX58), the log2 fold change was inactive: -0.242.
Turning to LSM7 (UniProt Q9UK45), the log2 fold change was inactive: 0.032.

Source of the values: the supplement of paper PMC10849652.
